# Measurements from PubChem BioAssay AID504467 (National Center for Advancing Translational Sciences (NCATS), 2011).
# Among all 330,000 compounds or so, about 7,700 (2.3%) were called active. The shares of active, inactive and inconclusive entries below differ from those in the screen. The call rests on the fitted dose curve; in most records, active means well fitted inhibition curve with a large enough effect; inconclusive means small, poorly fitted or top-dose-only effect, or effect the other way; inactive means flat fitted curve, though single readings scatter. Potencies beside an inconclusive call are fits to weak or partial responses and may not hold up.
# Experiment: qHTS screen for small molecules that inhibit ELG1-dependent DNA repair in human embryonic kidney (HEK293T) cells expressing luciferase-tagged ELG1; further: nearly all actives have a fitted effect of over 55% in size
# Settings: HEK293T ELG1-luciferase reporter, luminescence, 16 h, DNA damage induced by 5-fluorouridine; activity change, negative = inhibition: at 46.1 µM (top of the series)
# In short: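 Luminescence from the luciferase reporter, measured 30 min after ONE-Glo reagent at room temperature, was the read-out. Beforehand, 2,000 cells per well were exposed for 16 hr at 37 °C to 5-fluorouridine together with compound or vehicle.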
# On the % scale 0 is the no-effect control and ±100 the full control effect; potency means the concentration at half of the fitted maximal effect.
Compound,"activity change, negative = inhibition",Potency
O=C(NCc1ccc(F)cc1)c1ccc(CS(=O)Cc2ccccc2Cl)o1 (stereo not drawn),inactive: -13.5%,
COc1cc(C(=O)NC2CCCc3ccccc32)cc(OC)c1OC (stereo not drawn),,"inconclusive: 23.1 µM [activator, partial curve]"
O=C(CCc1nc2ccccc2c(=O)[nH]1)N1CCN(c2ccc(F)cc2)CC1,,"inconclusive: 16.4 µM [inhibitor, partial curve, poor fit]"
COc1ccc(C(=O)Nc2ccccc2C(=O)Nc2cccnc2)cc1,,"inconclusive: 16.4 µM [activator, partial curve]"
Cc1ccc(C(C)C)c(OCC(=O)NN=C(CCl)CCl)c1,,"inconclusive: 20.6 µM [inhibitor, single point]"
CCOc1ccc2nc(C(C)O)[nH]c2c1 (stereo not drawn),,"inconclusive: 32.6 µM [activator, partial curve, poor fit]"
COc1ccnc(CS(=O)c2nc3cc(C(O)(F)F)ccc3[nH]2)c1OC (stereo not drawn),,"inconclusive: 5.8 µM [inhibitor, full curve]"
Cc1ccc(/C(N)=N/OC(=O)c2ccc(Cl)cc2Cl)cc1,,"inconclusive: 0.92 µM [activator, partial curve]"
N/C(=N\OC(=O)c1ccoc1)c1ccc(Br)cc1,,"inconclusive: 8.2 µM [activator, partial curve]"
COc1ccc(-c2c(-c3ccccc3OC)sc3ccccc23)cc1,,"inconclusive: 25.9 µM [activator, single point]"
NS(=O)(=O)c1ccc(NC(=O)c2cc(-c3cc(Cl)ccc3O)n[nH]2)cc1,,active: 5.17 µM
Cc1ccc(NC(=O)CCCNC(=O)c2ccc(Cl)cc2)c(O)c1,,"inconclusive: 20.6 µM [activator, partial curve]"
Cc1ccc(-n2nnnc2SC(C)C(=O)NCC(=O)Nc2ccc(F)c(F)c2F)c(C)c1 (stereo not drawn),,active: 18.4 µM
O=C(CCCSc1ccc(Cl)cc1)Nc1ccccc1O,,"inconclusive: 9.2 µM [inhibitor, partial curve, poor fit]"
c1ccc(OCc2nn3c(Cn4nnc5ccccc54)nnc3s2)cc1,inactive: 3.67%,
O=C1/C(=C/c2ccncc2)Oc2cc(OS(=O)(=O)c3ccccc3)ccc21,,"inconclusive: 14.6 µM [activator, partial curve, poor fit]"
O=C(COC(=O)C1=COCCO1)NC1CCCCC1,,"inconclusive: 23.1 µM [activator, single point]"
COc1ccc(-c2cc(C(F)F)n3ncc(C(=O)Nc4cnn(Cc5ccccc5)c4)c3n2)cc1,,"inconclusive: 1.03 µM [inhibitor, full curve, poor fit]"
CC(=O)N1CC=CC1(CC(C)C)C(=O)NCCN1CCOCC1 (stereo not drawn),,"inconclusive: 16.4 µM [activator, single point]"
Cc1ccc(/C=C2\C(=O)NC(=O)N2C)o1,inactive: 0.293%,
O=C(c1cc2cc([N+](=O)[O-])ccc2oc1=O)N1CCOCC1,,"inconclusive: 13 µM [inhibitor, partial curve]"
COc1ccc(-n2nc3c(c2NC(=O)CCl)CSC3)cc1,,"inconclusive: 25.9 µM [inhibitor, partial curve, poor fit]"
COc1ccc(CCC(=O)OCC(=O)Nc2ccccc2)cc1,,"inconclusive: 20.6 µM [activator, single point]"
Cc1nc(N)c(C#N)c(-c2ccccc2Cl)c1C,,"inconclusive: 23.1 µM [inhibitor, partial curve, poor fit]"
Cc1nn(-c2ccc(C(=O)O)cc2)c(C)c1Cl,,"inconclusive: 18.3 µM [activator, single point]"

# Individual results from the list.
# Under Potency, `COc1cc(C(=O)NC2CCCc3ccccc32)cc(OC)c1OC` (stereo not drawn) is listed with inconclusive: 23.1 µM [activator, partial curve]
# Under Potency, `Cc1nn(-c2ccc(C(=O)O)cc2)c(C)c1Cl` is listed with inconclusive: 18.3 µM [activator, single point]

# Next part.

Compound,"activity change, negative = inhibition",Potency
Cc1ccccc1NCCNc1ccccc1C,,"inconclusive: 18.4 µM [activator, partial curve, poor fit]"
COc1ccc(N2CCN(C3CCCN(S(=O)(=O)c4ccc(C)cc4C)C3)CC2)cc1 (stereo not drawn),inactive: -10.7%,
COCc1cc(=O)n2[nH]cc(-c3ccsc3)c2n1,inactive: -30%,
COC(=O)c1[nH]c2cccc(Cl)c2c1NC(=O)CN(C)C1CCCCC1,inactive: 0%,
COc1cccc(/C=C2/SC(=O)N(C)C2=O)c1OCc1ccc(C(=O)O)cc1,inactive: 23.2%,
CC1SC(=S)N(c2ccc(N(C)C)cc2)C1=O (stereo not drawn),inactive: 0.594%,
C/C(=N\NC(=O)c1cc(O)ccc1O)c1cccc(NC(=O)c2cccc(Cl)c2)c1,,"inconclusive: 9.2 µM [activator, partial curve, poor fit]"
Cc1cc(N2CCOCC2)n2ncc(-c3ccccc3)c2n1,,"inconclusive: 0.146 µM [activator, full curve]"
Cc1ccccc1N=C(NO)c1nonc1N,inactive: 0%,
CCOC(=O)c1ccc(NC(=O)CN2C(=O)CNC2=O)cc1,,"inconclusive: 18.4 µM [activator, single point]"
COc1ccc(-c2cc(C(=O)N3CCN(c4ccccc4F)CC3)c3ccccc3n2)c(OC)c1,,active: 5.8 µM
COc1cccc(-n2cc(C(=O)NC(C)C)c3ccccc3c2=O)c1,,"inconclusive: 20.6 µM [inhibitor, single point]"
CN(c1ncc(C(F)(F)F)cc1Cl)n1cc(C(N)=O)c2ccccc2c1=O,inactive: -6.72%,
COc1ccc(/C=N/Nc2nc(N3CCCC3)nc(N3CCCC3)n2)cc1,,"inconclusive: 23.1 µM [inhibitor, partial curve]"
CC1(C)CC(=O)C=C(NCc2cccc(C(F)(F)F)c2)C1,inactive: -3.59%,
CCc1ccc(C(=O)OCC(=O)c2c(N)n(CC(C)C)c(=O)n(C)c2=O)cc1,,active: 8.2 µM
C=CCNC(=O)Cc1c(OC)ccc2cc(Br)ccc12,inactive: -19.1%,
CN1CCN(C2Cc3ccccc3Sc3ccc(Cl)cc32)CC1 (stereo not drawn),inactive: -2.4%,
CCOc1ccc(C(=O)C(CN2CCOCC2)c2ccccc2)cc1 (stereo not drawn),,"inconclusive: 16.4 µM [inhibitor, single point]"
CC(C)Cn1c(SC(C)C(=O)NCC2CCCO2)nc2ccc(Cl)cc2c1=O (stereo not drawn),inactive: -2.45%,
Cc1ccc(F)c(NC(=O)CCc2ccccc2)c1,,"inconclusive: 18.4 µM [activator, partial curve]"
COc1ccc(-c2c(C)nn3c(N4CCOCC4)cc(C)nc23)cc1OC,,active: 16.4 µM
COc1cc2c(cc1OC)CN(C(=O)CCCN1C(=O)c3ccccc3C1=O)CC2,inactive: -21%,
COc1ccc(N2CCN(Cc3nc4scc(-c5cccs5)c4c(=O)[nH]3)CC2)cc1,,"inconclusive: 18.3 µM [inhibitor, single point]"
Cc1ccc(S(=O)(=O)Nc2ccc(-c3nc4ccc(C)cc4s3)cc2)cc1,inactive: 17.1%,

Compound,"activity change, negative = inhibition",Potency
CC(C)COc1ccc(-c2cc(C(=O)NN)[nH]n2)cc1,,"inconclusive: 3.26 µM [activator, partial curve]"
Cc1ccc(-n2c(C)cc(C(=S)N3CCOCC3)c2C)cc1C,inactive: -23.3%,
Cc1cc(C(=O)Nc2sccc2C(N)=O)c(C)o1,,"inconclusive: 14.6 µM [activator, partial curve, poor fit]"
COC(=O)CSc1nnc2n(-c3ccc(OC)cc3)c(=O)c3c4c(sc3n12)CCCCC4,inactive: -0.793%,
CCN(c1ccccc1)S(=O)(=O)c1cc(C(=O)OC(C)C(=O)Nc2ccc3c(c2)OCCO3)ccc1C (stereo not drawn),,"inconclusive: 20.6 µM [inhibitor, partial curve]"
CCOc1ccc(NC(=S)N(CCc2c(C)[nH]c3ccc(C)cc23)Cc2cccnc2)cc1,,"inconclusive: 20.6 µM [inhibitor, single point]"
CCOc1ccc(-n2c(SCC(=O)NCc3ccco3)nnc2-c2c[nH]c3ccccc23)cc1,,"inconclusive: 23.1 µM [inhibitor, single point]"
O=C(c1ccccc1C(=O)N1CCN(c2ccc(F)cc2)CC1)N1CCN(c2ccc(F)cc2)CC1,,"inconclusive: 16.4 µM [inhibitor, partial curve]"
CCN1CCCc2cc(CN(CCN3CCOCC3)C(=S)Nc3ccc(OC)cc3)ccc21,inactive: 6.83%,
Cc1cc(Br)cc(/C=N/NC(=O)c2ccc3c(c2)OCO3)c1O,,"inconclusive: 4.11 µM [inhibitor, single point]"
Cc1ccn2cc(-c3cccc(NC(=O)c4cccs4)c3)nc2c1,inactive: -7.21%,
O=C(NC1=NCCS1)c1cc(-c2cccnc2)nc2ccccc12,,"inconclusive: 20.6 µM [inhibitor, single point]"
CN(C)CCCNC(=S)N(CCCO)Cc1cc2cc3c(cc2[nH]c1=O)OCO3,,"inconclusive: 35.5 µM [inhibitor, partial curve, poor fit]"
O=C(CSc1nnc(COc2cccc3cccnc23)o1)c1ccc(F)cc1,,"inconclusive: 22.4 µM [inhibitor, single point]"
CSc1cccc(NC(=O)CSc2ccc(C)cc2)c1,,"inconclusive: 8.2 µM [activator, partial curve]"
C=CCn1c(=S)[nH]c2nc3c(cc2c1=O)CCCC3,inactive: 22.9%,
CC1CN(C(=O)c2cc3c(=O)n4ccccc4nc3n2C)CC(C)O1 (stereo not drawn),,"inconclusive: 13 µM [activator, partial curve, poor fit]"
CCOC(=O)c1c(C)oc2ccc(OC(=O)c3cccs3)cc12,,"inconclusive: 14.6 µM [activator, partial curve]"
COc1cc(/C=N/Nc2ccnc(=O)[nH]2)ccc1O,,"inconclusive: 18.3 µM [activator, partial curve]"
COc1ccc(Cl)cc1C(=O)NNC(=O)CSc1nnnn1C,inactive: 3.37%,
COc1cc(C(C(=O)NC2CCCC2)N(C(=O)c2snc(C(N)=O)c2N)c2ccccc2)cc(OC)c1OC (stereo not drawn),inactive: 0.952%,
CCC(C)(C)n1nnnc1C(c1ccncc1)N1CCC(C)CC1 (stereo not drawn),inactive: 5.04%,
Cc1nc(-c2ccc(Cl)cc2)sc1C1(C)CC(c2ccc(C#N)cc2)=NO1 (stereo not drawn),,"inconclusive: 25.9 µM [inhibitor, single point]"
